Experimental data published in patent US4874526A, “Treatment of water” (Ciba-Geigy Corporation, priority 1981, dated 1989).

Experiment: Threshold test: effect on the activity of hydrolysed polymaleic anhydride (PMA) against calcium carbonate precipitation
Format: physicochemical
Details: 24 hours at 25° C.

CCCCCCCCCCCCCC[P+](CCCC)(CCCC)CCCC.[Cl-] [tri-n-butyl tetradecyl phosphonium chloride]
effect on the activity of PMA (Threshold test) (compared with QA or QT, FIGS. 1-3): much less than the effect of QA or QT
effect of PMA in the Threshold test in presence of the compound (at some concentrations of PC): actually enhanced
